Reference: publication PMC10267134
Results are given in words; binding and its absence hold for the method and conditions named. In cells and extracts the contact can be indirect. Some results given as binding are weak or reduced against the parent protein; the word gives no strength.

The chains behind the UniProt entries cited, without tags or fusion partners. Where a name states a change or a piece, a line headed by the entry shows the natural chain unless it says otherwise. A line that says so, or that is headed by a name, gives the form on record, which may keep a tag or linker.
Flag-SMURF1 (Q9HCE7, form named): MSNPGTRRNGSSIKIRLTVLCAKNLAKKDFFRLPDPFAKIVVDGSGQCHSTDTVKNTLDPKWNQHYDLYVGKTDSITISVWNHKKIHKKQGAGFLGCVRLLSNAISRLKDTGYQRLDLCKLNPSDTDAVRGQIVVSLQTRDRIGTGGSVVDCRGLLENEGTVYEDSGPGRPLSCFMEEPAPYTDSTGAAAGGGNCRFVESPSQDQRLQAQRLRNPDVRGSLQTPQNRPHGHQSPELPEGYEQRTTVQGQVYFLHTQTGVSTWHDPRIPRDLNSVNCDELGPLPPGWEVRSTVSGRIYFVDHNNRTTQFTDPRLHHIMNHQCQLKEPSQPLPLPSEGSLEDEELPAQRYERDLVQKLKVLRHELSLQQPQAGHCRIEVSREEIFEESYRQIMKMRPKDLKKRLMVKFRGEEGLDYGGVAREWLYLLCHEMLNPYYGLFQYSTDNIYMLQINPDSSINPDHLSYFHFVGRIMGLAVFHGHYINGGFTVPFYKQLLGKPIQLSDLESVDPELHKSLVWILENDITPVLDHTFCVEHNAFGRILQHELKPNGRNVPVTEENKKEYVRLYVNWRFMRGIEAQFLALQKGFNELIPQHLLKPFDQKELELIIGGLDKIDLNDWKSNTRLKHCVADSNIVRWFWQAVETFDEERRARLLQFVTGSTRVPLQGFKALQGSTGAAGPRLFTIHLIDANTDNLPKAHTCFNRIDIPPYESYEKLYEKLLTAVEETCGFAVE
UniProt Q14145: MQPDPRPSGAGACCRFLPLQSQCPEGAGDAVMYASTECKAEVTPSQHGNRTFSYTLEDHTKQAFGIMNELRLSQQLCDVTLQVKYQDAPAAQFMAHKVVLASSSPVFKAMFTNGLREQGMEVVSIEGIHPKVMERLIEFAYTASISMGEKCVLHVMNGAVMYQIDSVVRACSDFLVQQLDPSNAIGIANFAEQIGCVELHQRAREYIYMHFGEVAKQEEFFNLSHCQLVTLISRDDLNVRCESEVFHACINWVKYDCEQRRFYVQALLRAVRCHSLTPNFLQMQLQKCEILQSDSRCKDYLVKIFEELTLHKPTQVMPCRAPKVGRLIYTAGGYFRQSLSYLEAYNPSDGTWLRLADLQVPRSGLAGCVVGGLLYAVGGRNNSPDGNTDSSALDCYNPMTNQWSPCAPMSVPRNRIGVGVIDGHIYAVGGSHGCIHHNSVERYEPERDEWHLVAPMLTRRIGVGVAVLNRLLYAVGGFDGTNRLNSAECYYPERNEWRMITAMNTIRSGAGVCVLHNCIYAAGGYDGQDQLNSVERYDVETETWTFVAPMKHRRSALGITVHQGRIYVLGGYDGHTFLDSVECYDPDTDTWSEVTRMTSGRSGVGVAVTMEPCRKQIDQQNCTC

Legend:
HA-SMURF1 (human) = HA-SMURF1 (human) (UniProt Q9HCE7); test: co-IP; HA-SMURF1 and Flag-KEAP1 in LN229 cells, with or without TG (1 μM, 12 h); lysis in 50 mM Tris pH 8.0, 150 mM NaCl, 1% NP40, 0.5% sodium deoxycholate; protein G agarose; which tag was precipitated is not told
Flag-SMURF1 (human) = Flag-SMURF1 (human) (UniProt Q9HCE7); test: co-IP; LN229 cells overexpressing GFP-KEAP1, transfected with Flag-SMURF1 or its deletion constructs; immunoprecipitation with Flag antibody, blots for GFP and Flag

Substance | binding (HA-SMURF1 (human)) | binding (Flag-SMURF1 (human))
Flag-KEAP1 (from UniProt Q14145 1-624) | binds | –
GFP-KEAP1 (from UniProt Q14145 1-624) | – | binds
